Data from PubChem BioAssay AID1919006 (Molecular Pharmacology Branch, DTP, NCI, 2023).
Several values for one entry are separate records, joined by “and”; a condition that tells them apart may be missing. The calls were made as follows: active = viability on the fitted dose curve at most 10% of control; inactive = the rest. Identical values can stand only once. Further values from the same series stand in other lists.

Tested on: 885512-296-R-J2-PDC complex spheroid growth, % test/control
Test: Anticancer human tumor 885512-296-R-J2-PDC patient-derived breast carcinoma cell line growth inhibition [AhR]
Details: active compounds read low
Text: Multicellular complex tumor spheroid response to aryl hydrocarbon receptor antagonists in combination with a variety of drugs and investigational agents in selected tumor cell lines
The current study was undertaken to assess response to aryl hydrocarbon receptor antagonists in combination with standard-of-care drugs and investigational agents in solid tumor complex spheroid models. Complex spheroids include a stromal component modeled by human endothelial cells (HUVEC) and fibroblasts modeled by human mesenchymal stem cells (MSCs). The concentration ranges selected for each drug and investigational agent were based upon clinically achievable concentrations if the clinical Cmax of the agent was known.
Compounds. The drugs and investigational agents: BAY 2416964 (NSC825713), GNF351 (NSC835774), CH-223191 (NSC835775), CPI-455 (NSC825282), aza-TdCyd (NSC777586), decitabine (NSC127716), belinostat (NSC758774), entinostat (NSC756642), pevonedistat (NSC761192), tazemetostat (NSC777109), talazoparib (NSC765396), olaparib (NSC753686), selinexor (NSC780203), nedisertib (M3814, NSC802822), bortezomib (NSC756655), venetoclax (NSC766270), doxorubicin (NSC123127), elimusertib (BAY189344, NSC800525), ceralasertib (AZD6738, NSC777638), TAK-243 (NSC785004), alisertib (NSC759677), etoposide (NSC141540), topotecan (NSC609699), eribulin (NSC707389), gemcitabine (NSC613327), carboplatin (NSC241240), cisplatin (NSC119875), and SN-38 (NSC673596) were obtained from the National Cancer Institute (NCI) Developmental Therapeutics Program Chemical Repository (32). The FDA-approved anticancer drug set is available from the Developmental Therapeutics Program at https://dtp.cancer.gov/organization/dscb/obtaining/available plates.htm. […] The stock solutions were prepared in dimethyl sulfoxide (DMSO, Sigma-Aldrich, St. Louis, MO, cat. D2650), except for the platinum compounds which were prepared in saline (Quality Biological, Gaithersburg, MD, cat. 114-055-101), at 800-fold the tested concentration and stored at -70 degrees C prior to their use. All drugs and investigational agents were tested over a range starting from a high concentration at or near the clinical Cmax and decreasing in half-log increments. If the clinical Cmax for an agent had not been determined, the highest concentration tested was 10 microM (Table 1).
Cell Culture. All cells were maintained in an incubator at 37 degrees C and 5% CO2 with 95% humidity. The PDC lines were cultured according to standard operating procedures established by the NCI PDMR (https://pdmr.cancer.gov). Briefly, all PDCs were thawed and cultured in Matrigel-coated flasks prepared with a working solution of 1X Ham's F-12 nutrient mix, without supplementation (Invitrogen, Waltham, MA, cat. 11765054), 100 U/mL penicillin-streptomycin (Invitrogen, cat. 15140122), and 2.5% Matrigel (Corning Inc., Corning, NY, cat. 354248) for the first three passages. All PDCs were cultured in complete DMEM/F-12 media containing advanced DMEM/F-12 (Invitrogen, cat. 12634028), 4.9% defined fetal bovine serum, heat inactivated (HyClone Laboratories Inc., Logan, UT, cat. SH30070.03HI), 389 ng/mL hydrocortisone (Sigma-Aldrich, cat. H4001), 9.7 ng/mL human EGF recombinant protein (Invitrogen, cat. PHG0313), 23.4 microg/mL adenine (Sigma-Aldrich, cat. A2786), 97.3 U/mL penicillin-streptomycin (Invitrogen, cat. 15140122), 1.9 mM L-glutamine (Invitrogen, cat. 25030081), and 9.7 microM Y-27632 dihydrochloride (Tocris Bioscience, Bristol, United Kingdom, cat. 1254). The PDCs were cultured in complete DMEM/F12 media without 10 microM Y-27632 dihydrochloride for at least two passages prior to the screen. The established cell lines NCI-H1341 and […] were cultured in DMEM/F-12, HEPES (Invitrogen, cat. 11330032), 5% defined fetal bovine serum (HyClone Laboratories Inc., cat. SH30070.03), ITS premix universal culture supplement [insulin (5 microg/mL), transferrin (5 microg/mL), and selenious acid (5 ng/mL)] […]

Measured: viability, T/C
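Also: spheroids exposed to compounds for seven days.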

CC(CO)NC(=O)c1cc(-c2ccc(Cl)cc2)nn(-c2cnn(C)c2)c1=O (centres undefined)
inactive: compound 0.1 µM 101% and 90.4% | compound 0.316 µM 94.8% [middle of 4 runs] | compound 1 µM 94.9% [middle of 4 runs] | compound 10 µM 92% [middle of 6 runs]

Cc1ccccc1N=Nc1ccc(NC(=O)c2ccnn2C)c(C)c1
inactive: compound 0.1 µM 95.9% and 99.9% | compound 0.316 µM 97.2% and 91.6% and 119% | compound 1 µM 99.8% and 92.3% | compound 3.16 µM 91.1% [middle of 5 runs] | compound 10 µM 52.5% and 52.8% and 50.3%

Cc1cncc(-c2nc(NCCc3c[nH]c4ccccc34)c3ncn(C(C)C)c3n2)c1
inactive: compound 0.1 µM 95.2% and 96.5% and 89.6% | compound 0.316 µM 96.8% [middle of 4 runs] | compound 1 µM 87.9% [middle of 5 runs] | compound 3.16 µM 56.3% [middle of 5 runs] | compound 10 µM 15.6% [middle of 4 runs]
